These are yes or no findings as the source states them, for the method shown. Binding seen in cells or lysates may run through a third protein. These calls come from enrichment with a bait or labelling near it, and not all partners need be listed.
B1: Ras GTPase-activating protein nGAP (protein, UniProt Q9UJF2-2 1-1280)
chain: MELSPSSGGAAEALSWPEMFPALESDSPLPPEDLDAVVPVSGAVAGGMLDRILLESVCQQQSWVRVYDVKGPPTHRLSCGQSPYTETTTWERKYCILTDSQLVLLNKEKEIPVEGGQEQQTDSTKGRCLRRTVSVPSEGQFPEYPPEGATKLEVPAERSPRRRSISGTSTSEKPNSMDTANTSPFKVPGFFSKRLKGSIKRTKSQSKLDRNTSFRLPSLRSTDDRSRGLPKLKESRSHESLLSPCSTVECLDLGRGEPVSVKPLHSSILGQDFCFEVTYLSGSKCFSCNSASERDKWMENLRRTVQPNKDNCRRAENVLRLWIIEAKDLAPKKKYFCELCLDDTLFARTTSKTKADNIFWGEHFEFFSLPPLHSITVHIYKDVEKKKKKDKNNYVGLVNIPTASVTGRQFVEKWYPVSTPTPNKGKTGGPSIRIKSRFQTITILPMEQYKEFAEFVTSNYTMLCSVLEPVISVRNKEELACALVHILQSTGRAKDFLTDLVMSEVDRCGEHDVLIFRENTIATKSIEEYLKLVGQQYLHDALGEFIKALYESDENCEVDPSKCSSSELIDHQSNLKMCCELAFCKIINSYCVFPRELKEVFASWKQQCLNRGKQDISERLISASLFLRFLCPAIMSPSLFNLMQEYPDDRTSRTLTLIAKVIQNLANFAKFGNKEEYMAFMNDFLEHEWGGMKRFLLEISNPDTISNTPGFDGYIDLGRELSVLHSLLWEVVSQLDKATVAKLGPLPRVLADITKSLTNPTPIQQQLRRFTEHNSSPNVSGSLSSGLQKIFEDPTDSDLHKLKSPSQDNTDSYFRGKTLLLVQQASSQSMTYSEKDERESSLPNGRSVSLMDLQDTHAAQVEHASVMLDVPIRLTGSQLSITQVASIKQLRETQSTPQSAPQVRRPLHPALNQPGGLQPLSFQNPVYHLNNPIPAMPKASIDSSLENLSTASSRSQSNSEDFKLSGPSNSSMEDFTKRSTQSEDFSRRHTVPDRHIPLALPRQNSTGQAQIRKVDQGGLGARAKAPPSLPHSASLRSTGSMSVVSAALVAEPVQNGSRSRQQSSSSRESPVPKVRAIQRQQTQQVQSPVDSATMSPVERTAAWVLNNGQYEEDVEETEQNLDEAKHAEKYEQEITKLKERLRVSSRRLEEYERRLLVQEQQMQKLLLEYKARLEDSEERLRRQQEEKDSQMKSIISRLMAVEEELKKDHAEMQAVIDAKQKIIDAQEKRIVSLDSANTRLMSALTQVKERYSMQVRNGISPTNPTKLSITENGEFKNSSC
B2: Protein transport protein Sec24B (protein, UniProt O95487-3 1-1298)
chain: MSAPAGSSHPAASARIPPKFGGAAVSGAAAPAGPGAGPAPHQQNETGFHHVAQASLELLDPSNLPASASQIAGSTGPAQNQMQVPSGYGLHHQNYIAPSGHYSQGPGKMTSLPLDTQCGDYYSALYTVPTQNVTPNTVNQQPGAQQLYSRGPPAPHIVGSTLGSFQGAASSASHLHTSASQPYSSFVNHYNSPAMYSASSSVASQGFPSTCGHYAMSTVSNAAYPSVSYPSLPAGDTYGQMFTSQNAPTVRPVKDNSFSGQNTAISHPSPLPPLPSQQHHQQQSLSGYSTLTWSSPGLPSTQDNLIRNHTGSLAVANNNPTITVADSLSCPVMQNVQPPKSSPVVSTVLSGSSGSSSTRTPPTANHPVEPVTSVTQPSELLQQKGVQYGEYVNNQASSAPTPLSSTSDDEEEEEEDEEAGVDSSSTTSSASPMPNSYDALEGGSYPDMLSSSASSPAPDPAPEPDPASAPAPASAPAPVVPQPSKMAKPFGYGYPTLQPGYQNATAPLISGVQPSNPVYSGFQQYPQYPGVNQLSSSIGGLSLQSSPQPESLRPVNLTQERNILPMTPVWAPVPNLNADLKKLNCSPDSFRCTLTNIPQTQALLNKAKLPLGLLLHPFRDLTQLPVITSNTIVRCRSCRTYINPFVSFIDQRRWKCNLCYRVNDVPEEFMYNPLTRSYGEPHKRPEVQNSTVEFIASSDYMLRPPQPAVYLFVLDVSHNAVEAGYLTILCQSLLENLDKLPGDSRTRIGFMTFDSTIHFYNLQEGLSQPQMLIVSDIDDVFLPTPDSLLVNLYESKELIKDLLNALPNMFTNTRETHSALGPALQAAFKLMSPTGGRVSVFQTQLPSLGAGLLQSREDPNQRSSTKVVQHLGPATDFYKKLALDCSGQQTAVDLFLLSSQYSDLASLACMSKYSAGCIYYYPSFHYTHNPSQAEKLQKDLKRYLTRKIGFEAVMRIRCTKGLSMHTFHGNFFVRSTDLLSLANINPDAGFAVQLSIEESLTDTSLVCFQTALLYTSSKGERRIRVHTLCLPVVSSLADVYAGVDVQAAICLLANMAVDRSVSSSLSDARDALVNAVVDSLSAYGSTVSNLQHSALMAPSSLKLFPLYVLALLKQKAFRTGTSTRLDDRVYAMCQIKSQPLVHLMKMIHPNLYRIDRLTDEGAVHVNDRIVPQPPLQKLSAEKLTREGAFLMDCGSVFYIWVGKGCDNNFIEDVLGYTNFASIPQKMTHLPELDTLSSERARSFITWLRDSRPLSPILHIVKDESPAKAEFFQHLIEDRTEAAFSYYEFLLHVQQQICK
B3: Septin-9 (protein, UniProt Q9UHD8-1 1-586)
chain: MKKSYSGGTRTSSGRLRRLGDSSGPALKRSFEVEEVETPNSTPPRRVQTPLLRATVASSTQKFQDLGVKNSEPSARHVDSLSQRSPKASLRRVELSGPKAAEPVSRRTELSIDISSKQVENAGAIGPSRFGLKRAEVLGHKTPEPAPRRTEITIVKPQESAHRRMEPPASKVPEVPTAPATDAAPKRVEIQMPKPAEAPTAPSPAQTLENSEPAPVSQLQSRLEPKPQPPVAEATPRSQEATEAAPSCVGDMADTPRDAGLKQAPASRNEKAPVDFGYVGIDSILEQMRRKAMKQGFEFNIMVVGQSGLGKSTLINTLFKSKISRKSVQPTSEERIPKTIEIKSITHDIEEKGVRMKLTVIDTPGFGDHINNENCWQPIMKFINDQYEKYLQEEVNINRKKRIPDTRVHCCLYFIPATGHSLRPLDIEFMKRLSKVVNIVPVIAKADTLTLEERVHFKQRITADLLSNGIDVYPQKEFDEDSEDRLVNEKFREMIPFAVVGSDHEYQVNGKRILGRKTKWGTIEVENTTHCEFAYLRDLLIRTHMQNIKDITSSIHFEAYRVKRLNEGSSAMANGMEEKEPEAPEM
B4: SH3 domain-containing protein 19 (protein, UniProt Q5HYK7 1-790)
chain: MNIMNTEQSQNSIVSRIKVFEGQTNIETSGLPKKPEITPRSLPPKPTVSSGKPSVAPKPAANRASGEWDSGTENRLKVTSKEGLTPYPPLQEAGSIPVTKPELPKKPNPGLIRSVNPEIPGRGPLAESSDSGKKVPTPAPRPLLLKKSVSSENPTYPSAPLKPVTVPPRLAGASQAKAYKSLGEGPPANPPVPVLQSKPLVDIDLISFDDDVLPTPSGNLAEESVGSEMVLDPFQLPAKTEPIKERAVQPAPTRKPTVIRIPAKPGKCLHEDPQSPPPLPAEKPIGNTFSTVSGKLSNVERTRNLESNHPGQTGGFVRVPPRLPPRPVNGKTIPTQQPPTKVPPERPPPPKLSATRRSNKKLPFNRSSSDMDLQKKQSNLATGLSKAKSQVFKNQDPVLPPRPKPGHPLYSKYMLSVPHGIANEDIVSQNPGELSCKRGDVLVMLKQTENNYLECQKGEDTGRVHLSQMKIITPLDEHLRSRPNDPSHAQKPVDSGAPHAVVLHDFPAEQVDDLNLTSGEIVYLLEKIDTDWYRGNCRNQIGIFPANYVKVIIDIPEGGNGKRECVSSHCVKGSRCVARFEYIGEQKDELSFSEGEIIILKEYVNEEWARGEVRGRTGIFPLNFVEPVEDYPTSGANVLSTKVPLKTKKEDSGSNSQVNSLPAEWCEALHSFTAETSDDLSFKRGDRIQILERLDSDWCRGRLQDREGIFPAVFVRPCPAEAKSMLAIVPKGRKAKALYDFRGENEDELSFKAGDIITELESVDDDWMSGELMGKSGIFPKNYIQFLQIS
B5: Solute carrier family 26 member 6 (protein, UniProt Q9BXS9-1 1-759)
chain: MGLADASGPRDTQALLSATQAMDLRRRDYHMERPLLNQEHLEELGRWGSAPRTHQWRTWLQCSRARAYALLLQHLPVLVWLPRYPVRDWLLGDLLSGLSVAIMQLPQGLAYALLAGLPPVFGLYSSFYPVFIYFLFGTSRHISVGTFAVMSVMVGSVTESLAPQALNDSMINETARDAARVQVASTLSVLVGLFQVGLGLIHFGFVVTYLSEPLVRGYTTAAAVQVFVSQLKYVFGLHLSSHSGPLSLIYTVLEVCWKLPQSKVGTVVTAAVAGVVLVVVKLLNDKLQQQLPMPIPGELLTLIGATGISYGMGLKHRFEVDVVGNIPAGLVPPVAPNTQLFSKLVGSAFTIAVVGFAIAISLGKIFALRHGYRVDSNQELVALGLSNLIGGIFQCFPVSCSMSRSLVQESTGGNSQVAGAISSLFILLIIVKLGELFHDLPKAVLAAIIIVNLKGMLRQLSDMRSLWKANRADLLIWLVTFTATILLNLDLGLVVAVIFSLLLVVVRTQMPHYSVLGQVPDTDIYRDVAEYSEAKEVRGVKVFRSSATVYFANAEFYSDALKQRCGVDVDFLISQKKKLLKKQEQLKLKQLQKEEKLRKQAASPKGASVSINVNTSLEDMRSNNVEDCKMMQVSSGDKMEDATANGQEDSKAPDGSTLKALGLPQPDFHSLILDLGALSFVDTVCLKSLKNIFHDFREIEVEVYMAACHSPVVSQLEAGHFFDASITKKHLFASVHDAVTFALQHPRPVPDSPVSVTRL
B6: Sodium-coupled neutral amino acid transporter 1 (protein, UniProt Q9H2H9 1-487)
chain: MMHFKSGLELTELQNMTVPEDDNISNDSNDFTEVENGQINSKFISDRESRRSLTNSHLEKKKCDEYIPGTTSLGMSVFNLSNAIMGSGILGLAFALANTGILLFLVLLTSVTLLSIYSINLLLICSKETGCMVYEKLGEQVFGTTGKFVIFGATSLQNTGAMLSYLFIVKNELPSAIKFLMGKEETFSAWYVDGRVLVVIVTFGIILPLCLLKNLGYLGYTSGFSLSCMVFFLIVVIYKKFQIPCIVPELNSTISANSTNADTCTPKYVTFNSKTVYALPTIAFAFVCHPSVLPIYSELKDRSQKKMQMVSNISFFAMFVMYFLTAIFGYLTFYDNVQSDLLHKYQSKDDILILTVRLAVIVAVILTVPVLFFTVRSSLFELAKKTKFNLCRHTVVTCILLVVINLLVIFIPSMKDIFGVVGVTSANMLIFILPSSLYLKITDQDGDKGTQRIWAALFLGLGVLFSLVSIPLVIYDWACSSSSDEGH
B7: Zinc transporter ZIP10 (protein, UniProt Q9ULF5-1 26-831)
chain: HEEHDHGPEALHRQHRGMTELEPSKFSKQAAENEKKYYIEKLFERYGENGRLSFFGLEKLLTNLGLGERKVVEINHEDLGHDHVSHLDILAVQEGKHFHSHNHQHSHNHLNSENQTVTSVSTKRNHKCDPEKETVEVSVKSDDKHMHDHNHRLRHHHRLHHHLDHNNTHHFHNDSITPSERGEPSNEPSTETNKTQEQSDVKLPKGKRKKKGRKSNENSEVITPGFPPNHDQGEQYEHNRVHKPDRVHNPGHSHVHLPERNGHDPGRGHQDLDPDNEGELRHTRKREAPHVKNNAIISLRKDLNEDDHHHECLNVTQLLKYYGHGANSPISTDLFTYLCPALLYQIDSRLCIEHFDKLLVEDINKDKNLVPEDEANIGASAWICGIISITVISLLSLLGVILVPIINQGCFKFLLTFLVALAVGTMSGDALLHLLPHSQGGHDHSHQHAHGHGHSHGHESNKFLEEYDAVLKGLVALGGIYLLFIIEHCIRMFKHYKQQRGKQKWFMKQNTEESTIGRKLSDHKLNNTPDSDWLQLKPLAGTDDSVVSEDRLNETELTDLEGQQESPPKNYLCIEEEKIIDHSHSDGLHTIHEHDLHAAAHNHHGENKTVLRKHNHQWHHKHSHHSHGPCHSGSDLKETGIANIAWMVIMGDGIHNFSDGLAIGAAFSAGLTGGISTSIAVFCHELPHELGDFAVLLKAGMTVKQAIVYNLLSAMMAYIGMLIGTAVGQYANNITLWIFAVTAGMFLYVALVDMLPEMLHGDGDNEEHGFCPVGQFILQNLGLLFGFAIMLVIALYEDKIVFDIQF

Sequences of proteins named here, by UniProt entry; tags and fusion partners are left off.
UniProt Q8IWT6: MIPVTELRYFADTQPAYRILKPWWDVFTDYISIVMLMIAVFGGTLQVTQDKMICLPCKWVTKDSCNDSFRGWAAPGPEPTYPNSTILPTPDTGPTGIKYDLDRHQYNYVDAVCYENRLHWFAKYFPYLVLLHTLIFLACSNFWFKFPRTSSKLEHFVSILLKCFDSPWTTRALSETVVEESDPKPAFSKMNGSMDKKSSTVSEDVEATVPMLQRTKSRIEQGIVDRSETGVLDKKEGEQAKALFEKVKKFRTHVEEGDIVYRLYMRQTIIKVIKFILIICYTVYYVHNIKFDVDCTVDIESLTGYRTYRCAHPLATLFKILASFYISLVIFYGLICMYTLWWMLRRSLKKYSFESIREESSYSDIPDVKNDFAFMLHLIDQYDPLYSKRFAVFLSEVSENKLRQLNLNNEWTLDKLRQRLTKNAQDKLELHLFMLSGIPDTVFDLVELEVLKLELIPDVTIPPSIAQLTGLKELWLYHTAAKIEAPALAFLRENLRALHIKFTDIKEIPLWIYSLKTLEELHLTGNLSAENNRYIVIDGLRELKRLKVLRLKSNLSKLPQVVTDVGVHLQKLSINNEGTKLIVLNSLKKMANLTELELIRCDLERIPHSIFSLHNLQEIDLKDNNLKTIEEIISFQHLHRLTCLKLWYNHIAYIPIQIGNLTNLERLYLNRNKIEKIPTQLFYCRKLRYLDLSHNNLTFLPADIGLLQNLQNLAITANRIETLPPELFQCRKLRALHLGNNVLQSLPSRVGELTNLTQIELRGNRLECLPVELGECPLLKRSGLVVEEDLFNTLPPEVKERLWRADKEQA

These binders were tested against LRRC8A-BirA*-HA fusion protein (human) (UniProt Q8IWT6) (assay: proximity labelling; BioID: HEK293 cells stably expressing LRRC8A-BirA*-HA (two clones), 50 uM biotin 24 h, RIPA lysis, streptavidin bead pull-down of biotinylated proteins, TMT labelling and LC-MS/MS; hits: FDR <= 0.05 and fold change >= 2 against the no-biotin control).
With B1 the binding was “binds”. For B2, the binding was “binds”. B3 was tested, and the binding was “binds”. In the case of B4, the binding is reported as “binds”. For B5, the binding was “binds”. In the case of B6, the binding is reported as “binds”. B7 was tested, and the binding was “binds”.

Reference: paper PMC11193767
